Laboratory results as given in publication PMC6465301, “Enzyme-responsive progelator cyclic peptides for minimally invasive delivery to the heart post-myocardial infarction” (Nature Communications, 2019).

Experiment: In vitro catheter injection (MyoStar transendocardial catheter)
Conditions: 10 mM in 1× DPBS pH 7.4, 0.6 mL min−1, 27 G inner nitinol tubing of MyoStar catheter, 37 °C water bath; cyclic progelators 2 mol% labeled, incubation in catheter loop 60 min

Ac-KFDFKFDFKFDF-NH2 [KFDF]
Catheter injectability: caused immediate catheter clogging

Ac-KLDLKLDLKLDL-NH2 [KLDL]
Catheter injectability: caused immediate catheter clogging
